{
  "source": "paper PMC3472974",
  "about": "“The Bite of the Honeybee: 2-Heptanone Secreted from Honeybee Mandibles during a Bite Acts as a Local Anaesthetic in Insects and Mammals” (PLoS ONE, 2012)",
  "key": {"[1]": {"system": "isolated rat sciatic nerve", "source_text": "The ex vivo studies used both male and female rats weighing between 230 and 250 g. Animals were sacrificed using light anaesthesia with CO2 and cervical dislocation. The sciatic nerve of the rat, consisting of 27,000 sciatic nerve fibres, was isolated in a three-chamber recording bath (Fig. 5b). The sciatic nerves were dissected from the spinal cord to the knee, immersed in oxygenated (O2, 100%) saline solution and cleaned. The composition of the saline was (in mmoles/L): 136 NaCl, 11 glucose, 4.7 KCl, 2.4 CaCl2, 1.1 MgCl2, 1 NaHCO3, 10 HEPES, pH = 7.2). All experiments were performed at a constant temperature, 26.0±1.0°C. […] The nCAP (Fig. 5a) was generated by stimulating (1 Hz) the part of the nerve in the stimulating chamber and was recorded in the recording chamber every second using standard electrophysiological methods. The nCAP was monitored throughout the experiment as an indication of the vitality of the nerve fibres in the recording bath. […] Then, recovery of the nCAP in normal stagnant saline was monitored for 24 h. […]\nFor further data analysis, the amplitude of the nCAPs, estimated from baseline to peak (Fig. 5), were measured at a specific time (every 1.0 s, 1.0 min or 1.0 h) and were expressed as a percentage of the amplitude of the nCAP at t = 0 (which was considered to be 100%). […] Data were analyzed by one-way ANOVA and Bonferroni’s post hoc tests, when required. […]"}, "[2]": {"system": "rat", "conditions": "oral rat; no reference given; cited from earlier work"}},
  "data": [
    {"smiles": "CCN(CC)CC(=O)Nc1c(C)cccc1C", "note": "[lidocaine]", "values": [
      {"measurement": "neurotoxic action in 24 h monitoring of nerve vitality", "setting": "[1]", "value": "no neurotoxic action"},
      {"measurement": "acute LD50", "setting": "[2]", "value": 313, "unit": "mg/kg"}
    ]}
  ]
}
